This passage reports binding results from US20240018247A1 (MUSC FOUNDATION FOR RESEARCH DEVELOPMENT, published 2024).

The target of this assay is T1, recombinant mouse P-selectin-Ig (BD Biosciences) (mouse) (UniProt Q01102).
T1 sequence (looked up): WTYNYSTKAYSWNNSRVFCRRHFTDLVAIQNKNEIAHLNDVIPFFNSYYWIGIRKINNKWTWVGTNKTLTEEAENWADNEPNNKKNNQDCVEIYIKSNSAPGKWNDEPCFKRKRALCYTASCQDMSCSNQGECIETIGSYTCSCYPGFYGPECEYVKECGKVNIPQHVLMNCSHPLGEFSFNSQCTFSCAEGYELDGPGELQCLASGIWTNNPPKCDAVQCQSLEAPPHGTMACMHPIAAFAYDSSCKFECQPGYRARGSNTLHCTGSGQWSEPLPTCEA
As to the kind of experiment: ELISA, mouse P-selectin-Ig as capture antigen, anti-His tag detection. (In general: ELISA stands for enzyme-linked immunosorbent assay.)

These are yes or no findings as the source states them, for the method shown. Some results given as binding are weak or reduced against the parent protein; the word gives no strength. Where a sequence is shown, tags or fusion partners need not be part of it.

B1: NB.PSelscFv-Crry (anti-pselectin 2.3scFv-Crry, non-blocking) (scFv)
chain: QIQLVLSGPELKKPGESVKISCKASGYTFTTYGMSWVKQAPGKGLKWMGWINTSSGVPTYADDFKGRFAFSLETSASTAYLQINNLKNEDTATYFCARGGGYYGAYYFYYWGQGTTLTVSSGGGGSGGGGSGGGGSDIQMTQSPASLSASVGETVTITCRTSDNINSYLAWYLQRQGKSPQLLVYNAKTLTEGVPSRFSGSGSGTQFSLKINSLQPEDFGSYYCQHHYGPPPTFGGGTKLEIKGGGGSGGGGSCPAPSQLPSAKPINLTDESMFPIGTYLLYECLPGYIKRQFSITCKQDSTWTSAEDKCIRKQCKTPSDPENGLVHVHTGIQFGSRINYTCNQGYRLIGSSSAVCVITDQSVDWDTEAPICEWIPCEIPPGIPNGDFFSSTREDFHYGMVVTYRCNTDARGKALFNLVGEPSLYCTSNDGEIGVWSGPPPQCIELNKCTPPPYVENAVMLSENRSLFSLRDIVEFRCHPGFIMKGASSVHCQSLNKWEPELPSCFKGVICRLPQEMSGFQKGLGMKKEYYYGENVTLECEDGYTLEGSSQSQCQSDGSWNPLLAKCVSRSIIEGRHHHHHH
notes: also called Psel.NB; Psel-NB
With B1, the binding entry is “binds”.
